In paper PMC3280960 one finds binding data, which are given here for four molecules.

One assay addresses T1, GST::NHR-69 (C. elegans) (UniProt P91829).
T1 sequence: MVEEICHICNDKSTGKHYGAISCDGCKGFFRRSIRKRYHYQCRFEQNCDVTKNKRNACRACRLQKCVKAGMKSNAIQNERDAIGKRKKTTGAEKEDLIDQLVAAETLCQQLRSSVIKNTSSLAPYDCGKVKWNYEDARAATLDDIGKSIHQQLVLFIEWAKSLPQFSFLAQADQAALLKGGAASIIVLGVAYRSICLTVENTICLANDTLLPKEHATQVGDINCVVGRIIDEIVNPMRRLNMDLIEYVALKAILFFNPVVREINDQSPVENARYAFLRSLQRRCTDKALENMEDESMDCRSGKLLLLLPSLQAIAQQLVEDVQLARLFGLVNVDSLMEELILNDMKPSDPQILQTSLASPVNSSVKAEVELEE
Put plainly: pull-down; in vitro GST pull-down: GST fusion of NHR-69 or GST alone with in vitro transcribed/translated Smad proteins; only the target purified.

The target in assay [1] is T2, DAF-8 (C. elegans (endogenous in worms)) (UniProt Q21733).
T2 sequence: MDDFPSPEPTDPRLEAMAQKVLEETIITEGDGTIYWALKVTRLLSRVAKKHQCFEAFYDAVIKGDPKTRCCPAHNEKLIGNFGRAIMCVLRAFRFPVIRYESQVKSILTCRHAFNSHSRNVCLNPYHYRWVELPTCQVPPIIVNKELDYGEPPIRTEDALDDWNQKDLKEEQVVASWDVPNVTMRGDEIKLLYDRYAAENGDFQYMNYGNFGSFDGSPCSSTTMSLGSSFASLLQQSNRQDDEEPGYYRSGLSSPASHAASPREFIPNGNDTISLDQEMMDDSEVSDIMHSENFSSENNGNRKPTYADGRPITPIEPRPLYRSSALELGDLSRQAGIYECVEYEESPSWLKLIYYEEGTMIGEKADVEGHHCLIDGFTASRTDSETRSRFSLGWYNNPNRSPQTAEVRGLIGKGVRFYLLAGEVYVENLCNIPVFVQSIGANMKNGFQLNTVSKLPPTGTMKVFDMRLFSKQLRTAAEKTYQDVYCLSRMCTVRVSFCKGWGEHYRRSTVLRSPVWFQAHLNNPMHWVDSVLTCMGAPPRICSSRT
Put plainly: co-IP; in vivo co-immunoprecipitation with anti-DAF-8 antibody from nhr-69p::nhr-69::gfp worms (wild-type worms as control), immunoblot with anti-GFP antibody. On the technique in general: Immunoblotting shows a protein as a band on a membrane.

Results are given in words; binding and its absence hold for the method and conditions named. Binding seen in cells or lysates may run through a third protein. Some binding calls cover weakened binding; strength is not graded here. Tags and fused reporters may be left off the sequences shown.

B1: DAF-8 (in vitro transcribed/translated) (protein, UniProt Q21733 1-546)
chain: T2 sequence
As to B1, in the assay with GST::NHR-69 (C. elegans), the binding result is given as “binds”.

B2: DAF-3 (in vitro transcribed/translated) (protein, UniProt Q95QI7 1-892)
chain: MGDHHNLTGLPGTSIPPQFNYSQPGTSTGGPLYGGKPSHGLEDIPDVEEYERNLLGAGAGFNLLNVGNMANEFKPIITLDTKPPRDANKSLAFNGGLKLITPKTEVPDEHTPMMSPVNTTTKILQRSGIKMEIPPYLDPDSQDDDPEDGVNYPDPDLFDTKNTNMTEYDLDVLKLGKPAVDEARKKIEVPDASAPPNKIVEYLMYYRTLKESELIQLNAYRTKRNRLSLNLVKNNIDREFDQKACESLVKKLKDKKNDLQNLIDVVLSKGTKYTGCITIPRTLDGRLQVHGRKGFPHVVYGKLWRFNEMTKNETRHVDHCKHAFEMKSDMVCVNPYHYEIVIGTMIVGQRDHDNRDMPPPHQRYHTPGRQDPVDDMSRFIPPASIRPPPMNMHTRPQPMPQQLPSVGATFAHPLPHQAPHNPGVSHPYSIAPQTHYPLNMNPIPQMPQMPQMPPPLHQGYGMNGPSCSSENNNPFHQNHHYNDISHPNHYSYDCGPNLYGFPTPYPDFHHPFNQQPHQPPQLSQNHTSQQGSHQPGHQGQVPNDPPISRPVLQPSTVTLDVFRRYCRQTFGNRFFEGESEQSGAIIRSSNKFIEEFDSPICGVTVVRPRMTDGEVLENIMPEDAPYHDICKFILRLTSESVTFSGEGPEVSDLNEKWGTIVYYEKNLQIGEKKCSRGNFHVDGGFICSENRYSLGLEPNPIREPVAFKVRKAIVDGIRFSYKKDGSVWLQNRMKYPVFVTSGYLDEQSGGLKKDKVHKVYGCASIKTFGFNVSKQIIRDALLSKQMATMYLQGKLTPMNYIYEKKTQEELRREATRTTDSLAKYCCVRVSFCKGFGEAYPERPSIHDCPVWIELKINIAYDFMDSICQYITNCFEPLGMEDFAKLGINVSDD
Consider B2, for which the binding result with GST::NHR-69 (C. elegans) was “no binding”.

B3: DAF-14 (in vitro transcribed/translated) (protein, UniProt F5GUE5 1-331)
chain: MSNEQEDFGSLFNNQGELGIMDDFAEFGFQTTTTPTNWAAAGNYMYPDQVHLPASINNPNMPINDWLEDAPMPDCYNVPSTSTDENNDPFPFSNISSQSSLKPKTPEKAVVEVRPTGNEMLDPEPKYPKEEKPWCTIFYYELTVRLGKAFEAKVPTITIDGATGASDECRMSLTSQPSSRNSKSSQIRNTVGAGIQLAYENGELWLTVLTDQIVFVQCPFLNQTLNKPLKYVFRLQNKGDQKRMKIFDKEQFEQEKTLALGPLTEKEVADERMRIFSNIRVSFCKGFGETYSRLKVVNLPCWIEIILHEPADEYDTVFRINNERPEIGSRS
On to B3, for which the binding result with GST::NHR-69 (C. elegans) is recorded as “no binding”.

B4: NHR-69::GFP (protein, UniProt P91829 1-373)
chain: T1 sequence
B4: the binding entry in assay [1] was “binds”.
